PubChem BioAssay AID1259331 – Drosophila RNAi Screening Center, 2017
Aim: 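Knock-downs that alter ATP level after a high zinc chloride dose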 (primary screen). Cell system: Drosophila S2R+ cells. Reagent: long dsRNA against Drosophila genes. Duration: 5 days (4 days knock-down, then 1 day zinc). Conditions: zinc chloride at 15 mM final level for 1 day. Measured: 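Luminescent ATP assay standing in for viability; Z score is the mean over three replicate plates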. Reading the numbers: mean Z score: higher = more ATP than other wells, better survival under zinc; ATP luminescence: higher = more ATP, more viable cells. Active means: 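a reagent is called a hit when its Z score is above 1.5 or below -1.5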. Calls: active = hit, ATP up or down; inactive = not a hit.
This is one part, drawn at random, of about 3,100 reagents. Over the whole deposit, 126 (4.1%) got an active call. 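Calls are per reagent; zinc was so toxic that few knock-downs lowered ATP further, so most hits raise ATP.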 Raw values are not corrected between plates. Names joined by + are all predicted targets of the reagent. Not stated in the record: the amount of reagent.

The opening 6 entries, ahead of the listing:
Gene	dsRNA	mean Z score	ATP luminescence, replicate 1	ATP luminescence, replicate 2	outcome
Gat (GABA transporter)	DRSC17144	-0.752	51595	55590	inactive
Gat (GABA transporter)	DRSC39474	0.162	59495	55350	inactive
Picot	DRSC07508	0.14	32376	33015	inactive
Picot	DRSC24256	-0.0139	53516	58386	inactive
Cad99C (Cadherin 99C)	DRSC15050	0.115	63753	72245	inactive
Cad99C (Cadherin 99C)	DRSC16317	-0.357	41760	41685	inactive

The list itself, from the first entry:
Gene	dsRNA	mean Z score	ATP luminescence, replicate 1	ATP luminescence, replicate 2	outcome
Gat (GABA transporter)	DRSC17144	-0.752	51595	55590	inactive
Gat (GABA transporter)	DRSC39474	0.162	59495	55350	inactive
Picot	DRSC07508	0.14	32376	33015	inactive
Picot	DRSC24256	-0.0139	53516	58386	inactive
Cad99C (Cadherin 99C)	DRSC15050	0.115	63753	72245	inactive
Cad99C (Cadherin 99C)	DRSC16317	-0.357	41760	41685	inactive
CG16781	DRSC18117	-0.514	56791	58265	inactive
CG16781	DRSC28112	-0.385	53773	51407	inactive
prt (portabella)	DRSC16894	0.281	40790	61318	inactive
prt (portabella)	DRSC39457	0.731	59157	63753	inactive
MFS14 (Major Facilitator Superfamily Transporter 14)	DRSC29787	0.114	50909	49726	inactive
MFS14 (Major Facilitator Superfamily Transporter 14)	DRSC39753	1.38	79360	87646	inactive
Ptp4E (Protein tyrosine phosphatase 4E)	DRSC18701	-0.427	38273	39953	inactive
Ptp4E (Protein tyrosine phosphatase 4E)	DRSC36632	-0.396	44994	40998	inactive
Ptp4E (Protein tyrosine phosphatase 4E)	DRSC36633	-0.344	41359	41812	inactive
path (pathetic)	DRSC10361	0.858	86136	88795	inactive
path (pathetic)	DRSC39838	0.645	61815	69052	inactive
TRAM	DRSC18178	0.228	48064	45817	inactive
TRAM	DRSC18651	1.02	83134	82900	inactive
CG8908	DRSC07297	-0.02	69584	73066	inactive
CG8908	DRSC39602	0.289	63136	67637	inactive
Nup98-96 (Nucleoporin 98-96kD)	DRSC14209	9.66	1.52e5	1.73e5	active
Nup98-96 (Nucleoporin 98-96kD)	DRSC14210	2.39	75450	92363	active
Sras (severas)	DRSC11287	0.0327	78469	58660	inactive
asRNA:CR43429 + Impbeta11	DRSC07525	0.189	58626	72242	inactive
asRNA:CR43429 + Impbeta11	DRSC39687	1.21	80784	76888	inactive
TkR99D (Tachykinin-like receptor at 99D)	DRSC16881	-0.00594	68709	63133	inactive
TkR99D (Tachykinin-like receptor at 99D)	DRSC39870	-0.781	46159	48514	inactive
Rab3-GEF (Rab3 GDP-GTP exchange factor)	DRSC19954	0.494	68401	80218	inactive
Rab3-GEF (Rab3 GDP-GTP exchange factor)	DRSC19955	-0.0498	39959	44188	inactive
Rab3-GEF (Rab3 GDP-GTP exchange factor)	DRSC27720	-0.14	52178	57513	inactive
Syb (Synaptobrevin)	DRSC07559	1.24	36096	46811	inactive
Syb (Synaptobrevin)	DRSC25904	-0.156	53121	54126	inactive
CG5342	DRSC15776	-0.535	40210	51389	inactive
Dh44-R2 (Diuretic hormone 44 receptor 2)	DRSC06141	-0.146	63513	69430	inactive
Osi22 (Osiris 22)	DRSC16442	0.00481	33713	58540	inactive
Osi22 (Osiris 22)	DRSC27176	-0.36	52127	55642	inactive
CG14223	DRSC24816	-0.416	53430	51304	inactive
CG14223	DRSC39909	0.065	58025	67629	inactive
CHOp24	DRSC18310	-0.311	42182	44977	inactive
CHOp24	DRSC39433	0.476	65228	50978	inactive
CG5535	DRSC10514	-0.0512	30816	32564	inactive
CG5535	DRSC29215	0.395	69258	65679	inactive
kumpel (kin of rumpel)	DRSC14883	0.0194	37275	58969	inactive
kumpel (kin of rumpel)	DRSC16459	-0.261	36439	53173	inactive
kumpel (kin of rumpel)	DRSC16460	0.0352	37107	58883	inactive
kumpel (kin of rumpel)	DRSC16461	0.0044	36953	59946	inactive
kumpel (kin of rumpel)	DRSC16462	0.247	38119	59997	inactive
kumpel (kin of rumpel)	DRSC16463	-0.366	33576	54004	inactive
kumpel (kin of rumpel)	DRSC25593	-0.35	47549	55130	inactive
kumpel (kin of rumpel)	DRSC27664	-0.128	57122	56270	inactive
kumpel (kin of rumpel)	DRSC39430	0.166	53670	49092	inactive
kumpel (kin of rumpel)	DRSC39876	-0.252	54802	59842	inactive
CG7218	DRSC16216	-0.654	37519	38668	inactive
CG7218	DRSC27550	-1.11	43725	40011	inactive
CG5687	DRSC08568	-0.178	30140	34124	inactive
CG5687	DRSC39621	-0.162	60478	54992	inactive
Or49a (Odorant receptor 49a)	DRSC07493	-0.0845	72517	70287	inactive
Or49a (Odorant receptor 49a)	DRSC39708	3.68	1.23e5	1.13e5	active
Ir67b (Ionotropic receptor 67b)	DRSC09876	-0.298	69594	60872	inactive
Nmdar2 (NMDA receptor 2)	DRSC18183	-0.0886	37519	45920	inactive
Nmdar2 (NMDA receptor 2)	DRSC18569	-0.926	50481	50909	inactive
CG34435	DRSC18086	-0.951	48886	51718	inactive
CG34435	DRSC39470	0.162	55459	51561	inactive
Cad87A (Cadherin 87A)	DRSC16161	0.847	53584	56328	inactive
Cad87A (Cadherin 87A)	DRSC29158	-0.00768	59329	63256	inactive
CG4480	DRSC02750	0.375	55529	39970	inactive
Tmx3 (Thioredoxin-related transmembrane protein 3)	DRSC10471	0.0284	40159	27734	inactive
Tmx3 (Thioredoxin-related transmembrane protein 3)	DRSC39606	-0.188	63204	52572	inactive
